Some of these results come from one statement about several compounds together.
Tested on: LLCPK cells conditionally expressing hLAT1
Format: cell-based

Cc1cc(N(CCCl)CCCl)ccc1CC(N)CC(=O)O (stereo not shown) [Example 4, 3-Amino-4-[4-[bis(2-chloroethyl)amino]-2-methyl-phenyl]butanoic Acid]
percent surviving cells in cells expressing LAT1 compared to cells not expressing LAT1 (reduction): at least 25%
